# Laboratory results from the supplement of paper PMC8728848.
# The list shows a part of the results.
# Tests used:
# Experiment in all cases: glycan array binding signal (z-score within array); higher = stronger binding
# Conditions in all cases: glycan notation: IUPAC condensed, linker removed
# Gal3S(b1-4)Glc = target: Gal3S(b1-4)Glc
# Procedure, shortened: (§1)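 The Consortium for Functional Glycomics database supplied 3228 glycan arrays, of which those lacking an available protein sequence were dropped. The binding signal, a within-array Z-score, was averaged across arrays of the same protein sequence and across linkers. Negative scores can be read as non-binding.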
# Gal3S(b1-4)Glc6S = target: Gal3S(b1-4)Glc6S
# Procedure, shortened: as §1
# Gal3S(b1-4)GlcNAc = target: Gal3S(b1-4)GlcNAc
# Procedure, shortened: as §1
# [1] = target: Gal3S(b1-4)[Fuc(a1-3)]Glc6S
# Procedure, shortened: as §1
# [2] = target: Gal3S(b1-4)[Fuc(a1-3)]GlcNAc
# Procedure, shortened: as §1
# [3] = target: Gal3S(b1-4)[Fuc(a1-3)]GlcNAc6S
# Procedure, shortened: as §1
# Gal3S4S(b1-4)GlcNAc = target: Gal3S4S(b1-4)GlcNAc
# Procedure, shortened: as §1
# Gal3S6S(b1-4)GlcNAc = target: Gal3S6S(b1-4)GlcNAc
# Procedure, shortened: as §1
# Gal3S6S(b1-4)GlcNAc6S = target: Gal3S6S(b1-4)GlcNAc6S
# Procedure, shortened: as §1
# Gal4S(b1-4)GlcNAc = target: Gal4S(b1-4)GlcNAc
# Procedure, shortened: as §1
# Gal4S6S(b1-4)GlcNAc = target: Gal4S6S(b1-4)GlcNAc
# Procedure, shortened: as §1
# Gal6P(b1-4)GlcNAc = target: Gal6P(b1-4)GlcNAc
# Procedure, shortened: as §1
# Gal6S(b1-3)GlcNAc = target: Gal6S(b1-3)GlcNAc
# Procedure, shortened: as §1
# Gal6S(b1-3)GlcNAc6S = target: Gal6S(b1-3)GlcNAc6S
# Procedure, shortened: as §1
# Gal6S(b1-4)Glc = target: Gal6S(b1-4)Glc
# Procedure, shortened: as §1
# Gal6S(b1-4)Glc6S = target: Gal6S(b1-4)Glc6S
# Procedure, shortened: as §1
# Gal6S(b1-4)GlcNAc = target: Gal6S(b1-4)GlcNAc
# Procedure, shortened: as §1
# Gal6S(b1-4)GlcNAc6S = target: Gal6S(b1-4)GlcNAc6S
# Procedure, shortened: as §1
# GalNAc(a1-3)Gal = target: GalNAc(a1-3)Gal
# Procedure, shortened: as §1
# GalNAc(a1-3)GalNAc = target: GalNAc(a1-3)GalNAc
# Procedure, shortened: as §1
# [4] = target: GalNAc(a1-3)GalNAc(b1-3)Gal(a1-4)Gal(b1-4)Glc
# Procedure, shortened: as §1
# [5] = target: GalNAc(a1-3)GalNAc(b1-3)Gal(a1-4)Gal(b1-4)GlcNAc
# Procedure, shortened: as §1
# GalNAc(b1-3)Gal = target: GalNAc(b1-3)Gal
# Procedure, shortened: as §1
# [6] = target: GalNAc(b1-3)Gal(a1-4)Gal(b1-4)GlcNAc
# Procedure, shortened: as §1
# [7] = target: GalNAc(b1-3)Gal(a1-4)Gal(b1-4)GlcNAc(b1-3)Gal(b1-4)Glc
# Procedure, shortened: as §1
# [8] = target: GalNAc(b1-3)Gal(a1-6)Gal(b1-4)Glc
# Procedure, shortened: as §1
# GalNAc(b1-3)GalNAc = target: GalNAc(b1-3)GalNAc
# Procedure, shortened: as §1
# GalNAc(b1-3)GlcNAc = target: GalNAc(b1-3)GlcNAc
# Procedure, shortened: as §1
# GalNAc(b1-4)Gal(b1-4)Glc = target: GalNAc(b1-4)Gal(b1-4)Glc
# Procedure, shortened: as §1
# GalNAc(b1-4)GlcNAc = target: GalNAc(b1-4)GlcNAc
# Procedure, shortened: as §1
# [9] = target: GalNAc(b1-4)GlcNAc(b1-2)Man
# Procedure, shortened: as §1
# [10] = target: GalNAc(b1-4)GlcNAc(b1-2)Man(a1-3)[GalNAc(b1-4)GlcNAc(b1-2)Man(a1-6)]Man(b1-4)GlcNAc(b1-4)GlcNAc
# Procedure, shortened: as §1
# [11] = target: GalNAc(b1-4)GlcNAc(b1-3)GalNAc(b1-4)GlcNAc
# Procedure, shortened: as §1
# GalNAc(b1-4)GlcNAc6S = target: GalNAc(b1-4)GlcNAc6S
# Procedure, shortened: as §1
# GalNAc(b1-6)GalNAc = target: GalNAc(b1-6)GalNAc
# Procedure, shortened: as §1
# GalNAc3S(b1-4)GlcNAc = target: GalNAc3S(b1-4)GlcNAc
# Procedure, shortened: as §1
# GalNAc3S(b1-4)GlcNAc3S = target: GalNAc3S(b1-4)GlcNAc3S
# Procedure, shortened: as §1
binder,measurement,setting,value
"SAOUHSC 02783 (Staphylococcus aureus), Q5HD69 (protein) MIHSKKLTLGICLVLLIILIVGYVIMTKTNGRNAQIKDTFNQTLKLYPTKNLDDFYDKEGFRDQEFKKGDKGTWIVNSEMVIEPKGKDMETRGMVLYINRNTRTTKGYYFISEMTDDSNGRPKDDEKRYPVKMEHNKIIPTKPLPNDKLKKEIENFKFFVQYGNFKDINDYKDGDISYNPNVPSYSAKYQLNNDDYNVQQLRKRYDIPTKQAPKLLLKGDGDLKGSSVGSRSLEFTFVENKEENIYFTDSVQYTPSEDTRYESN",glycan array binding signal (z-score),Gal3S(b1-4)Glc,0.331
same,glycan array binding signal (z-score),Gal3S(b1-4)Glc6S,-0.932
same,glycan array binding signal (z-score),Gal3S(b1-4)GlcNAc,0.679
same,glycan array binding signal (z-score),[1],-0.183
same,glycan array binding signal (z-score),[2],-0.324
same,glycan array binding signal (z-score),[3],0.421
same,glycan array binding signal (z-score),Gal3S4S(b1-4)GlcNAc,-0.234
same,glycan array binding signal (z-score),Gal3S6S(b1-4)GlcNAc,0.827
same,glycan array binding signal (z-score),Gal3S6S(b1-4)GlcNAc6S,1.56
same,glycan array binding signal (z-score),Gal4S(b1-4)GlcNAc,1.21
same,glycan array binding signal (z-score),Gal4S6S(b1-4)GlcNAc,-0.6
same,glycan array binding signal (z-score),Gal6P(b1-4)GlcNAc,-0.604
same,glycan array binding signal (z-score),Gal6S(b1-3)GlcNAc,-0.599
same,glycan array binding signal (z-score),Gal6S(b1-3)GlcNAc6S,0.639
same,glycan array binding signal (z-score),Gal6S(b1-4)Glc,0.924
same,glycan array binding signal (z-score),Gal6S(b1-4)Glc6S,-0.573
same,glycan array binding signal (z-score),Gal6S(b1-4)GlcNAc,0.166
same,glycan array binding signal (z-score),Gal6S(b1-4)GlcNAc6S,-0.5
same,glycan array binding signal (z-score),GalNAc(a1-3)Gal,-1.02
same,glycan array binding signal (z-score),GalNAc(a1-3)GalNAc,-0.467
same,glycan array binding signal (z-score),[4],-0.793
same,glycan array binding signal (z-score),[5],2.14
same,glycan array binding signal (z-score),GalNAc(b1-3)Gal,1.71
same,glycan array binding signal (z-score),[6],-0.34
same,glycan array binding signal (z-score),[7],0.615
same,glycan array binding signal (z-score),[8],0.426
same,glycan array binding signal (z-score),GalNAc(b1-3)GalNAc,0.078
same,glycan array binding signal (z-score),GalNAc(b1-3)GlcNAc,-0.057
same,glycan array binding signal (z-score),GalNAc(b1-4)Gal(b1-4)Glc,-0.635
same,glycan array binding signal (z-score),GalNAc(b1-4)GlcNAc,-0.94
same,glycan array binding signal (z-score),[9],-1.26
same,glycan array binding signal (z-score),[10],0.776
same,glycan array binding signal (z-score),[11],0.9
same,glycan array binding signal (z-score),GalNAc(b1-4)GlcNAc6S,0.614
same,glycan array binding signal (z-score),GalNAc(b1-6)GalNAc,-0.896
same,glycan array binding signal (z-score),GalNAc3S(b1-4)GlcNAc,-0.138
same,glycan array binding signal (z-score),GalNAc3S(b1-4)GlcNAc3S,-0.052

# Part of the list above, with bars between the fields:
binder | measurement | setting | value
SAOUHSC 02783 (Staphylococcus aureus), Q5HD69 (protein) MIHSKKLTLGICLVLLIILIVGYVIMTKTNGRNAQIKDTFNQTLKLYPTKNLDDFYDKEGFRDQEFKKGDKGTWIVNSEMVIEPKGKDMETRGMVLYINRNTRTTKGYYFISEMTDDSNGRPKDDEKRYPVKMEHNKIIPTKPLPNDKLKKEIENFKFFVQYGNFKDINDYKDGDISYNPNVPSYSAKYQLNNDDYNVQQLRKRYDIPTKQAPKLLLKGDGDLKGSSVGSRSLEFTFVENKEENIYFTDSVQYTPSEDTRYESN | glycan array binding signal (z-score) | Gal3S(b1-4)GlcNAc | 0.679
same | glycan array binding signal (z-score) | Gal3S6S(b1-4)GlcNAc | 0.827
same | glycan array binding signal (z-score) | Gal3S6S(b1-4)GlcNAc6S | 1.56
